Reference: paper PMC12303078
These are yes or no findings as the source states them, for the method shown. Binding seen in cells or lysates may run through a third protein. Some entries that bind do so weakly or less than the wild type. For some assays here: Tags and fused reporters may be left off the sequences shown.

T1: 3×Flag-tagged carboxy-terminal domain of MGA (aa2445-2844) (UniProt A2AWL7)
T1 sequence: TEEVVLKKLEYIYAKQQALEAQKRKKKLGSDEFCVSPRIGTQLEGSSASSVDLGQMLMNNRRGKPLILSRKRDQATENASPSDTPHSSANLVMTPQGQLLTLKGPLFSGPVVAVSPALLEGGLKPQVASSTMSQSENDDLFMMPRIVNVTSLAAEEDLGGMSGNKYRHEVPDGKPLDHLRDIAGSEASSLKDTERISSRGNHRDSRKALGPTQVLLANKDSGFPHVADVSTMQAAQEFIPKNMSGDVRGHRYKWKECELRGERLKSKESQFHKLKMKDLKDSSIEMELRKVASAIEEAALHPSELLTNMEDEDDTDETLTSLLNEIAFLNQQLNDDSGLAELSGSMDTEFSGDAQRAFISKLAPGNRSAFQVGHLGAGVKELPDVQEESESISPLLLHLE

B1: ZMYM2 (protein, UniProt Q9CU65 1-1376)
chain: MDTSSVGTLELTDQTPVLLGSTAMATSLTNVGNSFSGPPNPLVSRSSKFQNSSVEDDDDVVFIEPVQPPPSSAPLVADQRPITFTSSKNEELQGNDPKILPSSKELAPQKGSVSETIVIDDEEDMETNQGQEKSSSNFIERRPSETKNRTNDVDFSSSTFSRSKVNAGVSNSGITTEPDSEIQIANVTTLETGVSSVSDGQLESTDGRDMNLMITHVTSLHNTSLGDGSNGLQSSNFGVNIQTYTPSLTSQTKAGVGPFNPGRMNVAGDVFQNGESAPHHNPDSWISQSASFPRNQKQQGVDSLSPVASLPKQIFQPSNQQPTKPVKVTCANCKKPLQKGQTAYQRKGSAHLFCSTTCLSSFSHKPAPKKLCVMCKKDITTMKGTIVAQVDSSESFQEFCSTSCLSLYEDKQSPAKGALNKSRCTICGKLTEIRHEVSFKNMTHKLCSDHCFNRYRMANGLIMNCCEQCGEYLPSKGAGNNVLVVDGQQKRFCCQSCVTEYKQVGSHPSFLKEVRDHMQDSFLMQPEKYGKLTTCTGCRTQCRFFDMTQCIGPNGYMEPYCSTACMNSHKTKYAKSQSLGIICHFCKRNSLPQYQATMPDGKLYNFCNSSCVAKFQALSMQSSPNGQFVAPSDIQLKCNYCKNSFCSKPEILEWENKVHQFCSKTCSDDYKKLHCIVTYCEYCQEEKTLHETVNFSGVKRPFCSEGCKLLYKQDFARRLGLRCVTCNYCSQLCKKGATKELDGVVRDFCSEDCCKKFQEWYYKAARCDCCKSQGTLKERVQWRGEMKHFCDQHCLLRFYCQQNEPNMTTQKGPENLHYDQGCQTSRTKMTGSAPPPSPTPNKEMKNKAILCKPLTMTKATYCKPHMQTKSCQTDENWKTEYVPVPIPVPVYVPVPMHMYSQNIPVPTTVPVPVPVPVFLPAPLDSSEKIPATVEDLKSKVSSDPLDSELLTMTDMMTEEEGKAEASNINSVIIETDIIGSDLTKNSDPDIQSNMPDVPYEPDLDIEIDFPRAAEELDMENEFLLPPVFGEEYEEQPRPRSKKKGTKRKAVSGYQSHDDSSDNSECSFPFKYTYGVNAWKHWVKTRQLDEDLLVLDELKSSKSVKLKEDLLSHTTAELNYGLAHFVNEIRRPNGENYAPDSIYYLCLGIQEYLCGSNRKDNIFIDPGYQMFEQELNKILRSWQPSILPDGSIFSRVEEDYLWRIKQLGSHSPVALLNTLFYFNTKYFGLKTVEQHLRLSFGTVFRHWKKNPLTMENKACLRYQVSSLCGTDNEDKIATGKRKHEDDEPVFEQVENTANPSRCPVKMFECYLSKSPQNLNQRMDVFYLQPECSSSTDSPVWYTSTSLDRNTLENMLVRVLLVKDIYDKDNYELDEDTD
B2: ATF7IP (protein, UniProt Q7TT18 1-1306)
chain: MDSVEEPQKKVFKARKTMRASDRQQLDAVHRVKGELLRADGKLLNGSHENGDLDPTSPLENTDCIQDREEVNGIDGICFQSEESTTEWKETPCMPNVAVKNKQEDLNSEALSPSITCDLSSRVTTEPGSGSPASDNPGCGTPVSDNPASDNPASDNPASDNPDSGDLAAGELATTVQATGDSACEEPPSSDPSSSDPTSSEPSSSEPTCSEPISGDPVSEEAASHDLVSGDSTCSEPVSGEPVSHEAASSEPATSEPASDEPVARVVAACELAPGESALDDCAPSGDSQSDEPPSSEDSLPRSVCSGLASGELTPGELSVEPATDTVKPSSSAVCEAGPDPDKTEPSSNNSDDCPGKSEDDEHLDQIQSKDSCDEGNKVNSNVVEKEEPLETHSAIICSDLPPENTTKIAEDPIAEPALEEEAISSSMEVDQSEKDEHKSPAEPVAAVSEDPAEEDKEDTVVDNTDSMETDEIIPILEKLAPTEDELSCFSKASLLPVETSQDLEDKMEGSFGSPSKQESSENLPKEAFLVLSDEEDLSCGKDESEAVAQSKMSTPEGEKSEKDGKAEEEERVPAEEQPPVRNEFSRRKRSKSEDMDSVESKRRRYMDEEYEAEFQVKITAKGDINQKLQKVIQWLLQEKLCALQCAVFDKTLAELKTRVEKIECNKRHKAVLTELQAKIARLTKRFGAAKDDLKKRQESPPNPPISPGKPANDTNSNNNMTYRNAGTVRQLLESKRNVSEGPPPSFQTPVNTVSSASHATSTAVVSSQPKLQTSATSGSLPAAPLLPAPSTATVVATTQVPSGTPQPTISLQPLPVILHVPVAVTSQPQLLQSHPGTLVTNQPSGNVEFISVQSQPTVSGLTKNPVSLPPLPNPTKPNIPSVPSPSSIQRNSSTTAAPLGTTLAVQAVPTAHSIVQATRTSLPTVGPSGLYSSSSSRGPIQMKIPISTFSPPSSAEQNSSATPRIVTENQTNKTVDSSINKKAADSTSQSGKASSSDSSGVIDLTMDDEESGTTQDPKKISPPSSSTVSTSQPMSRPLQPILPAPPLQPSGVPTSGPSQATIHVLPTAPTTVNVTHRPVTQVTTRLPVPRAPANHQVVYTTLPAPTTQAPLRGTVMQAPAVRQVNPQNSVTVRVPQTTTYVVNNGLTLGSAGPQLTVHHRPPQVHNEPPRPLHPAPLPEAPQPQRLPPEAASTSLPQKPHLKLARVQSQNGIVLSWSVLEVDRSCATVDSYHLYAYHEEPSATVPSQWKKIGEVKALPLPMACTLTQFVSGSKYYFAVRAKDIYGRFGPFCDPQSTDVISSSQNS
B3: HA-tagged ATF7IP (protein, UniProt Q7TT18 1-1306)
chain: B2 chain
B4: PCGF6 (protein, UniProt Q99NA9 1-353)
chain: MDEAETDATENKRASEAKRASAMPPPPPPPPPISPPALIPAPAAGEEGPASLGQAGAAGCSRSRPPALEPERSLGRLRGRFEDYDEELEEEEEMEEEEEEEEEMSHFSLRLESGRADSEDEEERLINLVELTPYILCSICKGYLIDATTITECLHTFCKSCIVRHFYYSNRCPKCNIVVHQTQPLYNIRLDRQLQDIVYKLVINLEEREKKQMHDFYKERGLEVPKPAAPQPVPSSKGKTKKVLESVFRIPPELDMSLLLEFIGANEDTGHFKPLEKKFVRVSGEATIGHVEKFLRRKMGLDPACQVDIICGDHLLERYQTLREIRRAIGDTAMQDGLLVLHYGLVVSPLKIT

Legend:
[1] = target: MGA (mouse (endogenous in ESCs)) (UniProt A2AWL7); assay: co-IP; anti-MGA antibody on Dynabeads with anti-rabbit IgG, overnight 4°C; nuclear extract / lysate (10 mM Tris-HCl pH8.0, 1 mM EDTA, 140 mM NaCl, 1% NP-40) of wild-type, parental, MGAΔFAM or Zmym2-null mouse ESCs; with or without a mixture of DNase and RNase; western blot
[2] = target: T1, 3×Flag-tagged carboxy-terminal domain of MGA (aa2445-2844); assay: co-IP; HEK293FT cells co-transfected with Flag-tagged MGA C-terminal portion (wild type or mutants) and HA-tagged ATF7IP; whole-cell extracts 48 h after transfection; Dynabeads with anti-mouse IgG antibody for immunoprecipitation; western blot
[3] = target: MGA (mouse (endogenous in ESCs)) (UniProt A2AWL7); assay: co-IP; anti-MGA antibody, lysate of Atf7ip-null mouse ESCs; western blot for SETDB1 and PCGF6

| Binder | binding [1] | binding [2] | binding [3] |
| --- | --- | --- | --- |
| B1 | binds | – | – |
| B2 | binds | – | – |
| B3 | – | binds | – |
| B4 | binds | – | binds |
